Assay [1] has as its target T1, APEX2-stomatin-V5 (human) (UniProt P27105).
T1 sequence: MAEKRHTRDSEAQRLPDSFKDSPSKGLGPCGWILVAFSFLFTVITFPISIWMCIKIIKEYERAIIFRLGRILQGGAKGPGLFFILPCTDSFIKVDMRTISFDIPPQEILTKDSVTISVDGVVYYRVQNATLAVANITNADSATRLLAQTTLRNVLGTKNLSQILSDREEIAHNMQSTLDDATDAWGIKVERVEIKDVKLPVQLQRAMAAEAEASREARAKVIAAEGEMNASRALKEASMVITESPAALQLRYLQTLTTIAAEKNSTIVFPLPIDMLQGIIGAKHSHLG
The assay is described as follows: proximity labelling.

Amino acid sequences for entries named in this document (tags omitted). A change or cut given only in a name is not applied to a line headed by its entry.
UniProt P51149: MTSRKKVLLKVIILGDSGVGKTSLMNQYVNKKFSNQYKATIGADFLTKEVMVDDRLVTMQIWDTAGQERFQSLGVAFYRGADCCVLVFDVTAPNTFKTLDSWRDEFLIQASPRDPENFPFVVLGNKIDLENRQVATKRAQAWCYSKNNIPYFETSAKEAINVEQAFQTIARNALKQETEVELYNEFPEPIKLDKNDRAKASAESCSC
UniProt P05556: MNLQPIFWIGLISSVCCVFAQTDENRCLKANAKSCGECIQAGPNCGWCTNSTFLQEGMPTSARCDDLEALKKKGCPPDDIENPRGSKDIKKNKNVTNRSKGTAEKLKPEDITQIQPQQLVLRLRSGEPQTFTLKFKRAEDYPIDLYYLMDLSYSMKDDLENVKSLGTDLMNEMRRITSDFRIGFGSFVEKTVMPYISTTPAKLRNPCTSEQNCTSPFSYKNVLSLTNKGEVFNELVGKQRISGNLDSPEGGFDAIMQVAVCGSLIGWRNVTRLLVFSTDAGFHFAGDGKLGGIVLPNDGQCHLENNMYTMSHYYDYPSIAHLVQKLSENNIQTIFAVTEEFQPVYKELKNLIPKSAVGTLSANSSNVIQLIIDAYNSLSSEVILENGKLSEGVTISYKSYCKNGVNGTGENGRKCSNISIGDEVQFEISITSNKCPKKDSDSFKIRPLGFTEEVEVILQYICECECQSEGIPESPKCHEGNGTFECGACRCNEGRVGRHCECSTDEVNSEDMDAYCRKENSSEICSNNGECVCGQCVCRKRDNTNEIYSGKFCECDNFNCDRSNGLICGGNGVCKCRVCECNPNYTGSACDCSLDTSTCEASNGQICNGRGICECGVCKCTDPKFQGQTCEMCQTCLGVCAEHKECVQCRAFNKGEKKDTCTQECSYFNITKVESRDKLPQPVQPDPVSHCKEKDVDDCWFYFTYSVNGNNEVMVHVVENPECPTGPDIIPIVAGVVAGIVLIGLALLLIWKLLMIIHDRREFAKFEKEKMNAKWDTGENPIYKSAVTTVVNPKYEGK

In assay [2] the target is T2, GFP-STOM-WT (stable HEK293T line for co-IP MS) (human) (UniProt P27105).
T2 sequence: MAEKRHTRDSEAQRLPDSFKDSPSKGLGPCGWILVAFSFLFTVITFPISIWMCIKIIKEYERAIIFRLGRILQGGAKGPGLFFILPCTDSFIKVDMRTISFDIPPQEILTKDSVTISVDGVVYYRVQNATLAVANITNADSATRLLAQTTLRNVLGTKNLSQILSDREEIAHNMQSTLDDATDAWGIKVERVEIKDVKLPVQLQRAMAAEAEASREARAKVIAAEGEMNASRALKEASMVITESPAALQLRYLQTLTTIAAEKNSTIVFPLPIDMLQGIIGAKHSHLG
As to the kind of experiment: affinity purification with mass spectrometry.

No constants are given. Whether binding was seen depends on the method and setting. Binding seen in cells or lysates may run through a third protein. These calls come from enrichment with a bait or labelling near it, and not all partners need be listed. Where a sequence is shown, tags or fusion partners need not be part of it.

In the case of Rab7a (from UniProt P51149 1-207), the binding entry in assay [1] and in assay [2] was “binds” throughout.
“integrin ITGB1 (from UniProt P05556 21-798) (receptor)”: the binding entry in assay [1] and in assay [2] was “binds” each time.

B1: integrin ITGA6 (receptor, UniProt P23229 24-1130)
chain: FNLDTREDNVIRKYGDPGSLFGFSLAMHWQLQPEDKRLLLVGAPRAEALPLQRANRTGGLYSCDITARGPCTRIEFDNDADPTSESKEDQWMGVTVQSQGPGGKVVTCAHRYEKRQHVNTKQESRDIFGRCYVLSQNLRIEDDMDGGDWSFCDGRLRGHEKFGSCQQGVAATFTKDFHYIVFGAPGTYNWKGIVRVEQKNNTFFDMNIFEDGPYEVGGETEHDESLVPVPANSYLGLLFLTSVSYTDPDQFVYKTRPPREQPDTFPDVMMNSYLGFSLDSGKGIVSKDEITFVSGAPRANHSGAVVLLKRDMKSAHLLPEHIFDGEGLASSFGYDVAVVDLNKDGWQDIVIGAPQYFDRDGEVGGAVYVYMNQQGRWNNVKPIRLNGTKDSMFGIAVKNIGDINQDGYPDIAVGAPYDDLGKVFIYHGSANGINTKPTQVLKGISPYFGYSIAGNMDLDRNSYPDVAVGSLSDSVTIFRSRPVINIQKTITVTPNRIDLRQKTACGAPSGICLQVKSCFEYTANPAGYNPSISIVGTLEAEKERRKSGLSSRVQFRNQGSEPKYTQELTLKRQKQKVCMEETLWLQDNIRDKLRPIPITASVEIQEPSSRRRVNSLPEVLPILNSDEPKTAHIDVHFLKEGCGDDNVCNSNLKLEYKFCTREGNQDKFSYLPIQKGVPELVLKDQKDIALEITVTNSPSNPRNPTKDGDDAHEAKLIATFPDTLTYSAYRELRAFPEKQLSCVANQNGSQADCELGNPFKRNSNVTFYLVLSTTEVTFDTPDLDINLKLETTSNQDNLAPITAKAKVVIELLLSVSGVAKPSQVYFGGTVVGEQAMKSEDEVGSLIEYEFRVINLGKPLTNLGTATLNIQWPKEISNGKWLLYLVKVESKGLEKVTCEPQKEINSLNLTESHNSRKKREITEKQIDDNRKFSLFAERKYQTLNCSVNVNCVNIRCPLRGLDSKASLILRSRLWNSTFLEEYSKLNYLDILMRAFIDVTAAAENIRLPNAGTQVRVTVFPSKTVAQYSGVPWWIILVAILAGILMLALLVFILWKCGFFKRSRYDDSVPRYHAVRIRKEEREIKDEKYIDNLEKKQWITKWNENESYS
Consider B1, for which the binding result in assay [1] and in assay [2] was “binds” each time.
